{"source": "patent US9034871B2", "about": "“Compounds for Alzheimer's disease” (priority 2004, dated 2015)", "origin": "cited, not measured here", "settings": "clinical trials in AD patients; cited from earlier work", "note": "At least one compound was matched to its structure with a doubt left."}
{"smiles": "Cc1ccc(-c2cc(C(F)(F)F)nn2-c2ccc(S(N)(=O)=O)cc2)cc1", "note": "[Celecoxib]", "values": [{"measurement": "efficacy for treating AD", "value": "failed to show efficacy"}]}
